Source: publication doi:10.1101/2024.10.25.620210
Results are given in words; binding and its absence hold for the method and conditions named. Binding seen in cells or lysates may run through a third protein. A yes stands for co-enrichment or nearness to the bait. Other partners may have been found. For some of these results: Sequences can lack the tags named with a protein.

By UniProt entry, the sequences of proteins in these tests, tags left out.
UniProt P56757: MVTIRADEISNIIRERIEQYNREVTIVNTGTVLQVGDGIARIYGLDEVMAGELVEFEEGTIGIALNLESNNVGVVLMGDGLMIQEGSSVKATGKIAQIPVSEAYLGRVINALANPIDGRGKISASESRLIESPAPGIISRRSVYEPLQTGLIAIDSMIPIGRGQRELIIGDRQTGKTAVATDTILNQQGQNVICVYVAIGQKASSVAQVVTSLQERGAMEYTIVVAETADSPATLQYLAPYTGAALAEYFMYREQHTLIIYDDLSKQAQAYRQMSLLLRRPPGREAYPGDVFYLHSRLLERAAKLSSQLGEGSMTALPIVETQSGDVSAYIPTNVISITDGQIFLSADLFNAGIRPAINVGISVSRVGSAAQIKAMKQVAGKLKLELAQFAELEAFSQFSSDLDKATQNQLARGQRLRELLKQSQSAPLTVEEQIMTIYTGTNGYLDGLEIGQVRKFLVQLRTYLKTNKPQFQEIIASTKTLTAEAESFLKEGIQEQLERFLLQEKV

What was measured:
[1] = target: T1, stλP8 (cTP8-2xStrep-HA-TurboID-A10 linker-PAP8) (Arabidopsis thaliana) (UniProt Q9XI19); experiment: affinity purification with mass spectrometry
T1 sequence: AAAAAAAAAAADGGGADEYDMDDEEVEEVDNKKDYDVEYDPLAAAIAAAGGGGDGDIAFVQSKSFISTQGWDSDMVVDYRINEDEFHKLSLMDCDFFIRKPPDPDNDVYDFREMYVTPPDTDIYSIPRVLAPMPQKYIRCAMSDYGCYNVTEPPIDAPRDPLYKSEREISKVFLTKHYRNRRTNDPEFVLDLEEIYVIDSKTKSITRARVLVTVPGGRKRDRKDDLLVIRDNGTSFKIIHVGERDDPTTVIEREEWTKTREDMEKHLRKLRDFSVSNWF

[2] = target: T1, stλP8 (cTP8-2xStrep-HA-TurboID-A10 linker-PAP8) (Arabidopsis thaliana); experiment: proximity labelling
[3] = target: stP8 (cTP8-2xStrep-HA-TurboID-PAP8) (Arabidopsis thaliana) (UniProt Q9XI19); experiment: affinity purification with mass spectrometry
[4] = target: stP8 (cTP8-2xStrep-HA-TurboID-PAP8) (Arabidopsis thaliana) (UniProt Q9XI19); experiment: proximity labelling

HTB9 (AT3G45980), histone 2B (Arabidopsis thaliana (endogenous))
binding [1]: binds | binding [2]: binds

ATPA (from UniProt P56757 1-507)
binding [3]: binds

STICL (Arabidopsis thaliana (endogenous))
binding [1]: binds | binding [2]: binds

B1: TIG (trigger factor) (protein, UniProt Q8S9L5 78-547)
chain: AASPAVETSVKEDKLPADLKVTETVQANSSVKLSVEVPEIVCEDCYQRVLTEFMKLSKVPGFRPKTRVPENIIVGFVGRQYVLRATVESILKRTLPHAMESVTGRALKDSIQIVSSFPDMEKAYSKLKTLSYEVVVDVVPELKWNPEDGYKNMKVVVELGDEIDAKKACERQLRQKYKSLGALKIVTERGLQVGDLAVVDISATTIDEDGSTGQAIPDAESKGFHFDTEEGNRLLPGFLDAIIGIRAGESKSFTLVFPESWKQESLRGQRAQFTVDCKELFYRDLPTLDDSLADKLLPGCTTLKEVEETLAKRCQEMEQEAKEQATDNAILEQIRKMVEVEIPQSLFEEQGRQFYGARLLEIQGNMKLNEDQLASLSSQKAVNEFLETQRESITNIIKQNIAVGDIFKRENLEFSTDELVKEVENSISEFKKHKQEFDEERVKDQVQEILEGAKVLEWLKDRAEIQYITR
binding [1]: binds | binding [3]: binds | binding [2]: binds | binding [4]: binds

B2: EMB1144 (protein, UniProt P57720 51-436)
chain: TGSSYGTHFRVSTFGESHGGGVGCIIDGCPPRIPLTESDLQFDLDRRRPGQSRITTPRKETDTCRISSGVSEGMTTGTPIHVFVPNTDQRGLDYSEMSVAYRPSHADATYDMKYGVRSVQGGGRSSARETIGRVAPGALAKKILKQFAGTEILAYVSQVHHVVLPEELVDHENLTLEQIENNIVRCPNPEYAEKMIAAIDAVRTKGNSVGGVVTCIVRNAPRGLGTPVFDKLEAELAKACMSLPATKGFEFGSGFAGTFLTGLEHNDEFYTDENGRIRTRTNRSGGIQGGISNGEIINMRVAFKPTSTIGRKQNTVTRDKVETEMIARGRHDPCVVPRAVPMVEAMVALVLVDQLMAQYAQCHLFPINPELQEPLQIEQPQNATAL
binding [1]: binds | binding [3]: binds | binding [2]: binds | binding [4]: binds

B3: STIC2 (protein, UniProt O82230 49-182)
chain: VNGLFGGGNKDNNSEDGQSKAGIFGNMQNMYETVKKAQMVVQVEAVRVQKELAAAEFDGYCAGELVKVTLSGNQQPIRTDITEAAMELGSEKLSQLVTEAYKDAHAKSVVAMKERMSDLAQSLGMPPGLSEGMK
binding [1]: binds | binding [3]: binds | binding [2]: binds | binding [4]: binds

B4: ATPF (protein, UniProt P56759 1-184)
chain: MKNLTDSFVYLGHWPSAGSFGFNTDILATNPINLSVVFGVLIFFGKGVLNDLLDNRKQRILNTIRNSEELREGAIQQLENARARLRNVETEADKFRVNGYSEIEREKLNLINSTYKTLKQLENYKNETILFEQQRTINQVRERVFQQALQGAIGTLNSCLSNELHLRTINANIGMFGTMKEITD
binding [3]: binds

B5: sigma factor SIG2 (protein, UniProt O22056 40-572)
chain: CAVSTSPALLTSMLDVAKLRLPSFDTDSDSLISDRQWTYTRPDGPSTEAKYLEALASETLLTSDEAVVVAAAAEAVALARAAVKVAKDATLFKNSNNTNLLTSSTADKRSKWDQFTEKERAGILGHLAVSDNGIVSDKITASASNKESIGDLESEKQEEVELLEEQPSVSLAVRSTRQTERKARRAKGLEKTASGIPSVKTGSSPKKKRLVAQEVDHNDPLRYLRMTTSSSKLLTVREEHELSAGIQDLLKLERLQTELTERSGRQPTFAQWASAAGVDQKSLRQRIHHGTLCKDKMIKSNIRLVISIAKNYQGAGMNLQDLVQEGCRGLVRGAEKFDATKGFKFSTYAHWWIKQAVRKSLSDQSRMIRLPFHMVEATYRVKEARKQLYSETGKHPKNEEIAEATGLSMKRLMAVLLSPKPPRSLDQKIGMNQNLKPSEVIADPEAVTSEDILIKEFMRQDLDKVLDSLGTREKQVIRWRFGMEDGRMKTLQEIGEMMGVSRERVRQIESSAFRKLKNKKRNNHLQQYLVAQS
binding [3]: binds

B6: sigma factor SIG6/SIGF (protein, UniProt Q9LD95 56-547)
chain: ASVLSQEPREESRPLSHALRDDRTSQLTLERRQFDELVSSREDEKFEQQLLHSTGLWNLLISPLTSETKLPAVVSPLADAELCDVVALAQKALSASKQAALLVDDTEANPSDNIKDSLSTSSSMSLPEKGNIVRSKRQLERRAKNRRAPKSNDVDDEGYVPQKTSAKKKYKQGADNDDALQLFLWGPETKQLLTAKEEAELISHIQHLLKLEKVKTKLESQNGCEPTIGEWAEAMGISSPVLKSDIHRGRSSREKLITANLRLVVHIAKQYQNRGLNFQDLLQEGSMGLMKSVEKFKPQSGCRFATYAYWWIRQSIRKSIFQNSRTIRLPENVYMLLGKVSEARKTCVQEGNYRPSKEELAGHVGVSTEKLDKLLYNTRTPLSMQQPIWSDQDTTFQEITPDSGIETPTMSVGKQLMRNHVRNLLNVLSPKERRIIKLRFGIDGGKQRSLSEIGEIYGLSKERVRQLESRALYRLKQNMNSHGLHAYADLLV
binding [3]: binds

B7: phytochrome A (endogenous) (receptor, UniProt P14712 1-1122)
chain: MSGSRPTQSSEGSRRSRHSARIIAQTTVDAKLHADFEESGSSFDYSTSVRVTGPVVENQPPRSDKVTTTYLHHIQKGKLIQPFGCLLALDEKTFKVIAYSENASELLTMASHAVPSVGEHPVLGIGTDIRSLFTAPSASALQKALGFGDVSLLNPILVHCRTSAKPFYAIIHRVTGSIIIDFEPVKPYEVPMTAAGALQSYKLAAKAITRLQSLPSGSMERLCDTMVQEVFELTGYDRVMAYKFHEDDHGEVVSEVTKPGLEPYLGLHYPATDIPQAARFLFMKNKVRMIVDCNAKHARVLQDEKLSFDLTLCGSTLRAPHSCHLQYMANMDSIASLVMAVVVNEEDGEGDAPDATTQPQKRKRLWGLVVCHNTTPRFVPFPLRYACEFLAQVFAIHVNKEVELDNQMVEKNILRTQTLLCDMLMRDAPLGIVSQSPNIMDLVKCDGAALLYKDKIWKLGTTPSEFHLQEIASWLCEYHMDSTGLSTDSLHDAGFPRALSLGDSVCGMAAVRISSKDMIFWFRSHTAGEVRWGGAKHDPDDRDDARRMHPRSSFKAFLEVVKTRSLPWKDYEMDAIHSLQLILRNAFKDSETTDVNTKVIYSKLNDLKIDGIQELEAVTSEMVRLIETATVPILAVDSDGLVNGWNTKIAELTGLSVDEAIGKHFLTLVEDSSVEIVKRMLENALEGTEEQNVQFEIKTHLSRADAGPISLVVNACASRDLHENVVGVCFVAHDLTGQKTVMDKFTRIEGDYKAIIQNPNPLIPPIFGTDEFGWCTEWNPAMSKLTGLKREEVIDKMLLGEVFGTQKSCCRLKNQEAFVNLGIVLNNAVTSQDPEKVSFAFFTRGGKYVECLLCVSKKLDREGVVTGVFCFLQLASHELQQALHVQRLAERTAVKRLKALAYIKRQIRNPLSGIMFTRKMIEGTELGPEQRRILQTSALCQKQLSKILDDSDLESIIEGCLDLEMKEFTLNEVLTASTSQVMMKSNGKSVRITNETGEEVMSDTLYGDSIRLQQVLADFMLMAVNFTPSGGQLTVSASLRKDQLGRSVHLANLEIRLTHTGAGIPEFLLNQMFGTEEDVSEEGLSLMVSRKLVKLMNGDVQYLRQAGKSSFIITAELAAANK
binding [3]: binds

B8: mTERF5/MDA1 (protein, UniProt F4JVI3 44-493)
chain: LKNRVEFSPRPVPPNLIAAEKEEAKAVLTLFFKKQGLSNSLSSRLINKSDLFIDHLVSRLHSVHKARYLVGRELTTLEIRDSLIPYLEQLHEEHGDLLAELVVSFPDPPAEPRLVASSPVSVLPPRGDTDSAADTRKLRAVSRVSELDTEGALRPQTLYLLDLGLNLEQIKTITRKFAAFPYYSLDGKIKPVVEFLLDLGIPKSDIPTILCKRPQICGISLTDNLKPTMAFLETLGIDKNQWAKIISRFPAILTYSRQKLTSTVEFLSQTGLTEEQIGRILTRCPNIMSYSVEDKLRPTMEYFRSLNVDVAVLLHRCPQTFGLSIESNLKPVTEFFLEKGFGLDEIGIMISRYGALYTFSLKENVMPKWDYFQTMDYPKSELVKFPQFFGYSLQERIKPRYELVQRSGVRLLLNQVLSLSGIEFEKVVKKKMMKLVSNNVIAEQSSGGLL
binding [2]: binds
